These are yes or no findings as the source states them, for the method shown. Binding seen in cells or lysates may run through a third protein. Some entries that bind do so weakly or less than the wild type. For some assays here: Sequences can lack the tags named with a protein.
Key:
[1] = target: T1, GABAA receptor α2 subunit modified with pHluorin and 9E10 (myc) epitope on its N-terminus (mouse (knock-in, forebrain)) (UniProt P26048); test: co-IP; immunopurified α1 and α2 (pHα2) receptors from forebrain plasma membranes resolved by BN-PAGE and immunoblotted for α1, pHα2 (GFP), β2 spectrin and β4 spectrin
T1 sequence: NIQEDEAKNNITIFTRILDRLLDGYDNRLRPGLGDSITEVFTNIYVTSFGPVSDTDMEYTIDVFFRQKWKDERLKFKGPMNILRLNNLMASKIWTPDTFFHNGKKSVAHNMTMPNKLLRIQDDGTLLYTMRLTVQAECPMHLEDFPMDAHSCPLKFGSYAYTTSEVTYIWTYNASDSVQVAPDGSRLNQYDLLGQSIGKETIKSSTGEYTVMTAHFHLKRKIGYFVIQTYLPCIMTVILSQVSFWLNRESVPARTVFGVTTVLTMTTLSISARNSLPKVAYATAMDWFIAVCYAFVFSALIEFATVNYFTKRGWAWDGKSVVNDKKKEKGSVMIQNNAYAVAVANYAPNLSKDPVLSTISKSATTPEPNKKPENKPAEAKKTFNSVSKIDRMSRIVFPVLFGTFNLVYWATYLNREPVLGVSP

Sequences of proteins named here, by UniProt entry; tags and fusion partners are left off. Residues count along the entry.
UniProt P62812, residues 28-455: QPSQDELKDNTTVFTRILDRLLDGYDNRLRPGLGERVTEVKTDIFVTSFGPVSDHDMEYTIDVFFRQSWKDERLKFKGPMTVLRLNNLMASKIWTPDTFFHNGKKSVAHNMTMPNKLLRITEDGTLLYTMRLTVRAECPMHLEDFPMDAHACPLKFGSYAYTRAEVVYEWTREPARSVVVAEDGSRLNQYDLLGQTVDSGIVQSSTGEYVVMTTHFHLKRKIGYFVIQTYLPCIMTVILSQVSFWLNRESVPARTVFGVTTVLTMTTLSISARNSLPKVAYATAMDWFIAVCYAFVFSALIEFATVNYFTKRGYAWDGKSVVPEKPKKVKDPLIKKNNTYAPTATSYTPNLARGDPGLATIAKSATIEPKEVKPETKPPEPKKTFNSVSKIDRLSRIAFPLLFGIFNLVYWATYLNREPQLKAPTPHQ
UniProt Q62261: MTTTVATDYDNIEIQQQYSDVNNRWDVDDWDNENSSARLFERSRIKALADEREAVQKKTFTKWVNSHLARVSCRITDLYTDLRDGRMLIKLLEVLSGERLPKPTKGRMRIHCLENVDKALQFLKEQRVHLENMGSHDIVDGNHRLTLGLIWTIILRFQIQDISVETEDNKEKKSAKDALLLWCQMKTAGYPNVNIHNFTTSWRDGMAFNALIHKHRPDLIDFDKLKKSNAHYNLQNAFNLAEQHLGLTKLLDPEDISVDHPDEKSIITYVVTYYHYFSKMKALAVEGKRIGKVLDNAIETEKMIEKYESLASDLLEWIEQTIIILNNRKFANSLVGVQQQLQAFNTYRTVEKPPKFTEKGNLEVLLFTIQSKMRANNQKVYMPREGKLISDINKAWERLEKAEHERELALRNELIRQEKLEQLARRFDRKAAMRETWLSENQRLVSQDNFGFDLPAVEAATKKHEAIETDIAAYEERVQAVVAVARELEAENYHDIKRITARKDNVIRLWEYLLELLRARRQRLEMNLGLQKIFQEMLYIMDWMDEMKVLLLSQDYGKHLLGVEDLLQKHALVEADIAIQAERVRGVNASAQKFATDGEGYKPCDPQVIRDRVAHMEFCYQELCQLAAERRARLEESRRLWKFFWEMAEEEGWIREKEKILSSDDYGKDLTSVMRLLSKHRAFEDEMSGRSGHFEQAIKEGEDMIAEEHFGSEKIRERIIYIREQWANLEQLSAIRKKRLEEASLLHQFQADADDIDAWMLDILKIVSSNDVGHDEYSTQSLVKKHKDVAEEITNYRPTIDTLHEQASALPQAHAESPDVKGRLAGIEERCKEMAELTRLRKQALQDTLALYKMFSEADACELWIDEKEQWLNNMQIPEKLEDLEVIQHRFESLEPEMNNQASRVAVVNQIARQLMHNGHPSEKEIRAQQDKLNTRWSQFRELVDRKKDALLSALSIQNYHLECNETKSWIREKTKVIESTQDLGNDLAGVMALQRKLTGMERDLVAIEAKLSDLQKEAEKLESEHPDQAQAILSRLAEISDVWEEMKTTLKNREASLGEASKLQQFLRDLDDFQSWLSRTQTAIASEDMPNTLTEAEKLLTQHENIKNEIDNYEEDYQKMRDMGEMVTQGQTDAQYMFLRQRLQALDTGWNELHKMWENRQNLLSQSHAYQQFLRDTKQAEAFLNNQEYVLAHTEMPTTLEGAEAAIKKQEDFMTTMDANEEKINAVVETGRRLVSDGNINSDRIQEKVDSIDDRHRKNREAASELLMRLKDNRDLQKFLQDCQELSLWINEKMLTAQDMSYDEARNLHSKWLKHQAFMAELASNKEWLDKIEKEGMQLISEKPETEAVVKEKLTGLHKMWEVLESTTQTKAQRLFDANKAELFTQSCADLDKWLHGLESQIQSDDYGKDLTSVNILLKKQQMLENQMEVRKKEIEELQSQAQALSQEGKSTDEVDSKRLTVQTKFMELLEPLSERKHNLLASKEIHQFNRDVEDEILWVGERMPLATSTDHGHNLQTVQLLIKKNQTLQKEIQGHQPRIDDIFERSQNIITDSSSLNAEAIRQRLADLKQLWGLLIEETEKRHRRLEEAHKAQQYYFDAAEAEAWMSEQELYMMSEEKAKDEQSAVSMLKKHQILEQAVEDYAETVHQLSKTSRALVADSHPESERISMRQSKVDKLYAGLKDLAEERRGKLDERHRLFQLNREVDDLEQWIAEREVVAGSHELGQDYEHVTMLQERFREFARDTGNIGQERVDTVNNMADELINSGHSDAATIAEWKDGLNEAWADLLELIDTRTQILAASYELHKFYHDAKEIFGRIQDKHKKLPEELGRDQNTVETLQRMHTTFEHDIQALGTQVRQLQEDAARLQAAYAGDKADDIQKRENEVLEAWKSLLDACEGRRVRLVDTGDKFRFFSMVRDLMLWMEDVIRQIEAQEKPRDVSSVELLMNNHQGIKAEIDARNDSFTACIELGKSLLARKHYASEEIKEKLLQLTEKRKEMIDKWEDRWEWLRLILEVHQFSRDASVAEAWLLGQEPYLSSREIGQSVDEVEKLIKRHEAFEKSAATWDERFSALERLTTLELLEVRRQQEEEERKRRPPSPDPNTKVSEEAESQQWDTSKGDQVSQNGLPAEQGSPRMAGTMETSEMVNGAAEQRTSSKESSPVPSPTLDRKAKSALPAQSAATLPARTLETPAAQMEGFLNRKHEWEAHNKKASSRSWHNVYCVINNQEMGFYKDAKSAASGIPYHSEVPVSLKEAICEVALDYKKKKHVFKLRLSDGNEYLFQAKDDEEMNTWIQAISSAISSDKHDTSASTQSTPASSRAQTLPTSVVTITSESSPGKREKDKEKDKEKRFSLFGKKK

[2] = target: GABAA receptor α1 subunit (mouse (endogenous in forebrain)) (UniProt P62812); test: as above

β2 spectrin (from UniProt Q62261 1-2363)
binding [1]: binds | binding [2]: binds

— paper PMC9816108
